Test results: the supplement of paper PMC11006884
The entries are a selection whose mix differs from that of the whole data set.

The chains behind the UniProt entries cited, without tags or fusion partners. Where a name states a change or a piece, a line headed by the entry shows the natural chain unless it says otherwise.
UniProt P05141: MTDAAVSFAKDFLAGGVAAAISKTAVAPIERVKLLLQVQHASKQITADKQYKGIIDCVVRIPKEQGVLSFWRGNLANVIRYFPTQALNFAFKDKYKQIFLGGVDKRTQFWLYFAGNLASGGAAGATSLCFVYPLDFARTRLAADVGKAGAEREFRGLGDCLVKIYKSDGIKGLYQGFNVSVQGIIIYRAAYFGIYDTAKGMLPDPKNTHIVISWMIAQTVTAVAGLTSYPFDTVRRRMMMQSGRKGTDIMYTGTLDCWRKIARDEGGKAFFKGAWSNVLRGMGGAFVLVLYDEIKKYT
UniProt O95573: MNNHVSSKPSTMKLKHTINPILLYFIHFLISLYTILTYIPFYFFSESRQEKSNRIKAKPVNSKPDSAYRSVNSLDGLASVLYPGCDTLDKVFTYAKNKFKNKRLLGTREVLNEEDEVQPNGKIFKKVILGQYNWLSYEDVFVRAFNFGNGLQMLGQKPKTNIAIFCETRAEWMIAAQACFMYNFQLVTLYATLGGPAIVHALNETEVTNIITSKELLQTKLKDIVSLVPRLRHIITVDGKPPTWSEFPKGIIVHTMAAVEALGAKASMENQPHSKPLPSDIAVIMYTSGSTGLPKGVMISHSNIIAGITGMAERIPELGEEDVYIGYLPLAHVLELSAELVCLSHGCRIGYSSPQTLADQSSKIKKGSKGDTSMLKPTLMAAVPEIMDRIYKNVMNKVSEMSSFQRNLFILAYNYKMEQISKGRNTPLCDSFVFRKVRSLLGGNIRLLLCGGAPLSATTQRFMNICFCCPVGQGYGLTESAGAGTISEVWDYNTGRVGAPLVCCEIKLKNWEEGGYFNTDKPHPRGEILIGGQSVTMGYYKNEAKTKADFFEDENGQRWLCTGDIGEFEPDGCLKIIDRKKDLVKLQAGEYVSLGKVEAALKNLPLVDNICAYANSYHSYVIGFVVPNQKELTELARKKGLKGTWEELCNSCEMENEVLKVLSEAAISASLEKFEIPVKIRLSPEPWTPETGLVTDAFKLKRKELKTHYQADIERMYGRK
UniProt O94906: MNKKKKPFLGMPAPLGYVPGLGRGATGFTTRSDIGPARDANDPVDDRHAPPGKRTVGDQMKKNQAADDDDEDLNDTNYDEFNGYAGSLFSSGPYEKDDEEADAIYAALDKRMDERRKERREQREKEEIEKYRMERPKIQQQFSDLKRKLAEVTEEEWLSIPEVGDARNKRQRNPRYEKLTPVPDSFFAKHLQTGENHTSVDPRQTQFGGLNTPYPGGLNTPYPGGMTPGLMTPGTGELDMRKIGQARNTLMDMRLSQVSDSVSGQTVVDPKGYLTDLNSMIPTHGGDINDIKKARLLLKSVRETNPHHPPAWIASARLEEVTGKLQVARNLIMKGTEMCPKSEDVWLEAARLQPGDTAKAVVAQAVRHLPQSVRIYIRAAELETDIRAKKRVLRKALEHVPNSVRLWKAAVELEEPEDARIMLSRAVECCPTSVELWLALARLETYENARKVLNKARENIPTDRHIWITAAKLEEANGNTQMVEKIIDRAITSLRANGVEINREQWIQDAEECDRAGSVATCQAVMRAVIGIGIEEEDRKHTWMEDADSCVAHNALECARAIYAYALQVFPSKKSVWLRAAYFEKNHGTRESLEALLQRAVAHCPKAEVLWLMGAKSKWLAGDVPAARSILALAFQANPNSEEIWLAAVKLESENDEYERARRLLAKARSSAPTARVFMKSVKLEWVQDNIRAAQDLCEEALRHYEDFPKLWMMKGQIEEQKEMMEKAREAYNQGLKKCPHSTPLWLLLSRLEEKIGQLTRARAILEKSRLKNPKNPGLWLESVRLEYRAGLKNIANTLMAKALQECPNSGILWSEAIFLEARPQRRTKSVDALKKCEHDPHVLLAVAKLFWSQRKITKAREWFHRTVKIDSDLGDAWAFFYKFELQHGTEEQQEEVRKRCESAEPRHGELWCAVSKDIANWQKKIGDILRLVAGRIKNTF
UniProt P07814: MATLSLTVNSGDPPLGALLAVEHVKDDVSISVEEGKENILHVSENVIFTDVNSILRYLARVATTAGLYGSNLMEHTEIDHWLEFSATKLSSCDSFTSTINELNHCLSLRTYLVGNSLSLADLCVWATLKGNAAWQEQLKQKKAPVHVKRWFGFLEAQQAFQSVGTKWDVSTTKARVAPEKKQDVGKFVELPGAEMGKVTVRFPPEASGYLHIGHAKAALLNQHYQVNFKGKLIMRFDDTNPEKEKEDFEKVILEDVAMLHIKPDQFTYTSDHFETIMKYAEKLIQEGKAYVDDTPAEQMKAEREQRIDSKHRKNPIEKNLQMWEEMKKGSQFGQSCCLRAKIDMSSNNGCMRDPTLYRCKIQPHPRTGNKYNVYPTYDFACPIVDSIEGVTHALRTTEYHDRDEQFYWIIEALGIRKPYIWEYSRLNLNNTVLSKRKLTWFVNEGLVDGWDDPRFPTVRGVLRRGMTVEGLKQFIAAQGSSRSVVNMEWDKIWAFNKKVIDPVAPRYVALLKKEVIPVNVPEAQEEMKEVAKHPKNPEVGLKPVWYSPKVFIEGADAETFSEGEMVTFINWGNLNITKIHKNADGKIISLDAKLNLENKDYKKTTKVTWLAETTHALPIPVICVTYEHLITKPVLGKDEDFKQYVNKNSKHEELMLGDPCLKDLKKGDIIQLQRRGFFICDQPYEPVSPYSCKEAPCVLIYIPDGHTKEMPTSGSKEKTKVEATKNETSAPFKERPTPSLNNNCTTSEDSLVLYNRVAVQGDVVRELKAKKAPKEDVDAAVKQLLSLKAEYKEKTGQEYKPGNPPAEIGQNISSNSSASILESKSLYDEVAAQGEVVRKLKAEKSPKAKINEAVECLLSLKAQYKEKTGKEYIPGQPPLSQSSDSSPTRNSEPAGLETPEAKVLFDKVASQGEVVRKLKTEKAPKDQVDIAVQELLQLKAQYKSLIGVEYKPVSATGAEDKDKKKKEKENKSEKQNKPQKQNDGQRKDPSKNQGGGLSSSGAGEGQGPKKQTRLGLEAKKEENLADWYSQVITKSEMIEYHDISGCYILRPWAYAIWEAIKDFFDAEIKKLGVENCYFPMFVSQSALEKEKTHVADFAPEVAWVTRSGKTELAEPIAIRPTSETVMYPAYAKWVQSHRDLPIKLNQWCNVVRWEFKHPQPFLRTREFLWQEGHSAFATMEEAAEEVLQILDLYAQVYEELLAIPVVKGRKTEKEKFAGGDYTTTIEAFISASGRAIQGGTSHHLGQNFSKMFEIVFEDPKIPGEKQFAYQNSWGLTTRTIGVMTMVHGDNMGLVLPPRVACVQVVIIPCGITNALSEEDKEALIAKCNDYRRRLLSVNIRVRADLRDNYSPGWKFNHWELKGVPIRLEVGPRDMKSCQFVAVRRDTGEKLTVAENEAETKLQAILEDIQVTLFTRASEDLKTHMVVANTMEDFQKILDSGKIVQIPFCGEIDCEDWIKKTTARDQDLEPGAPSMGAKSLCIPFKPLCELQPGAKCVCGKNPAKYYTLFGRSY
UniProt O95817, whole entry, looked up: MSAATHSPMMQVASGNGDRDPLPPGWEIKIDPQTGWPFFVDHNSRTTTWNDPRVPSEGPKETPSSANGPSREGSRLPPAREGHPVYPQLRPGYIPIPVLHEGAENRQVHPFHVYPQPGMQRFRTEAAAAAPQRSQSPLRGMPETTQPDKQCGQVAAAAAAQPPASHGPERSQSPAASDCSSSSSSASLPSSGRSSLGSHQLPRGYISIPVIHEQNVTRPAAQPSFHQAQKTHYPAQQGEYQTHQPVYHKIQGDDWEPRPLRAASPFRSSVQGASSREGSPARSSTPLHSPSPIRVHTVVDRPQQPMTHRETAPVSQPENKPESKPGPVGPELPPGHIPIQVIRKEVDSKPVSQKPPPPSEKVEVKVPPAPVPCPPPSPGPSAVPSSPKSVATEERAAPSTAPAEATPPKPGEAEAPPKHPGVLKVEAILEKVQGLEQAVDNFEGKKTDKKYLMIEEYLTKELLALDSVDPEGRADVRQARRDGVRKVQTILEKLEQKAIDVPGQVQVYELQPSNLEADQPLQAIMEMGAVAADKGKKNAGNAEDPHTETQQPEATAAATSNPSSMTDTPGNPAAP
UniProt O95163: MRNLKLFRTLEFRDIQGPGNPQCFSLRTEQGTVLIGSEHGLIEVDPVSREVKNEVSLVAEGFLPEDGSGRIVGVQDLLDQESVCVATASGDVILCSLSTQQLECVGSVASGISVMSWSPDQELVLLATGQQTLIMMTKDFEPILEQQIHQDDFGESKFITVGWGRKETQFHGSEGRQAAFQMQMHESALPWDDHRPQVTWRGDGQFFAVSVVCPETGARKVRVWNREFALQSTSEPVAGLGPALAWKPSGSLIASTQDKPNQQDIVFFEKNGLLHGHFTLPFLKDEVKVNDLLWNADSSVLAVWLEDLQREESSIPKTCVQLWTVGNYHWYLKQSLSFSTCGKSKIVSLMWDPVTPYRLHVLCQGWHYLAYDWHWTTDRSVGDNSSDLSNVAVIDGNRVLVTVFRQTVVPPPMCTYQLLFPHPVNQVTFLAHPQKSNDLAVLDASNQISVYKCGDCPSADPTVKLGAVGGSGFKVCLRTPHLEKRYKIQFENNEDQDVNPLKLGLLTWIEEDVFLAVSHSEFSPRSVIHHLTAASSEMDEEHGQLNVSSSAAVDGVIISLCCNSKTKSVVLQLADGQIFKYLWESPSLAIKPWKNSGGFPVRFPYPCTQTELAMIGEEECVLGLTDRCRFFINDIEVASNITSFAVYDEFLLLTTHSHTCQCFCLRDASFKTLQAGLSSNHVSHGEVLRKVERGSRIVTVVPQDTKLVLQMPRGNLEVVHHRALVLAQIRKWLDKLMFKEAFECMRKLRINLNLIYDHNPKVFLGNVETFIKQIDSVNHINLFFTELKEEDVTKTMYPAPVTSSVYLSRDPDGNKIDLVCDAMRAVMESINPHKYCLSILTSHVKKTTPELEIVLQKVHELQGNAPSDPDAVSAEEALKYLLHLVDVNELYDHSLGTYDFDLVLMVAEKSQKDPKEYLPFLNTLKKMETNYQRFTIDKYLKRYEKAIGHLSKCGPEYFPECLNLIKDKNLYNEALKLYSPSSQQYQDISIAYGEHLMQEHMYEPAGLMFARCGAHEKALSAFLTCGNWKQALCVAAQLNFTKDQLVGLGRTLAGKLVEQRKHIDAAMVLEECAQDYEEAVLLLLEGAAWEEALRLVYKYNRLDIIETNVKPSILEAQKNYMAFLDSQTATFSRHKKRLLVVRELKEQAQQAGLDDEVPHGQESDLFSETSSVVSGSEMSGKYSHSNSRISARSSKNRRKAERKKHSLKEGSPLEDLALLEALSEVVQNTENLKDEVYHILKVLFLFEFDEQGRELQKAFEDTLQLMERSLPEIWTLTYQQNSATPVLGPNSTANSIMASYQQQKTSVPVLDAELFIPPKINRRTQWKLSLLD
UniProt O95905: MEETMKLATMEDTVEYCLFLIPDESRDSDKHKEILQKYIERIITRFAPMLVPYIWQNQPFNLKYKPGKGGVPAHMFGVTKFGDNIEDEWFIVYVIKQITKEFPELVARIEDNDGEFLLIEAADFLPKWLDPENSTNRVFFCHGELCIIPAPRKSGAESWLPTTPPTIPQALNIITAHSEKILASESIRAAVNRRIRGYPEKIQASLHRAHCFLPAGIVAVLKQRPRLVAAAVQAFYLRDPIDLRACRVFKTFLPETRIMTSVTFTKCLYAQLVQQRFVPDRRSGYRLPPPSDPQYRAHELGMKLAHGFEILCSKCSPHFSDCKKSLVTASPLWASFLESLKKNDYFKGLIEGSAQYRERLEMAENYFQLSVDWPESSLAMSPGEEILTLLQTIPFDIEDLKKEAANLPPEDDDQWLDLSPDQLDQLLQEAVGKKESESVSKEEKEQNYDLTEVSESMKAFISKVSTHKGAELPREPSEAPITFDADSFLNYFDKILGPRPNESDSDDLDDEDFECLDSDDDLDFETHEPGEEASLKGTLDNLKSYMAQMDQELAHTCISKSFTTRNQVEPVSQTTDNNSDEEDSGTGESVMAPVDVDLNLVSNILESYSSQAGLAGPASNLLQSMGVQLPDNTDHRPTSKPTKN
UniProt O95295: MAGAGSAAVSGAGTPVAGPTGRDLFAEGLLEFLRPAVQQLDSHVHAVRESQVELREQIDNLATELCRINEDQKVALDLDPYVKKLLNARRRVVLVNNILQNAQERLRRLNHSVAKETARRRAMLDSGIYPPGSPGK
UniProt O95983: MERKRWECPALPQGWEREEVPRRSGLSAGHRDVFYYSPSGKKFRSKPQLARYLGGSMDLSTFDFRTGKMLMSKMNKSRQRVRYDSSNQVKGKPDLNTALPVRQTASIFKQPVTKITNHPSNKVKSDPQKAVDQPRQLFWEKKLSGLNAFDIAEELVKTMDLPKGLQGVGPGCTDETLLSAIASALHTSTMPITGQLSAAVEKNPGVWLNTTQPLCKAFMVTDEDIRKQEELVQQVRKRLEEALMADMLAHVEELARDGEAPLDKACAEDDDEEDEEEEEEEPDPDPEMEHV

Compound: COC(=O)C#Cc1ccccc1 [methyl 3-phenylpropiolate]
Experiment: log2 ratio of iodoacetamide-alkyne labeling of the cysteine site, DMSO over compound (competition); higher = stronger covalent engagement of the cysteine by the compound, active = 1 or more
Settings: 500 µM; treatment time 1 h; system: HEK293T cell lysate
Procedure, shortened: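 Three replicates, each with duplicate channels, were prepared from HEK293T lysate (2 mg/mL) treated with vehicle or electrophile at 500 µM for 1 h at ambient temperature. Iodoacetamide alkyne was then applied for 1 h, and samples were clicked to sCIP-TMT reagents, pooled, trypsin-digested overnight at 37 °C, enriched on streptavidin, acid-eluted and analysed on Orbitrap Eclipse LC-MS/MS with FAIMS, with FragPipe quantification. The log2 competition ratio per cysteine is the mean control-channel divided by the mean compound-channel reporter intensity. Cysteines quantified in only one replicate were left out.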

log2 ratio of iodoacetamide-alkyne labeling, inactive:
SLC25A5 C160 (UniProt P05141) 0.177
ACSL3 C561 (UniProt O95573) 0.0916
PRPF6 C698 (UniProt O94906) 0.0824
EPRS C1487 (UniProt P07814) 0.0745
SOD1 C58 (UniProt P00441) 0.393
BAG3 C151 (UniProt O95817) 0.655
PRPF6 C429 (UniProt O94906) 0.551
SVIL C671 (UniProt O95425) 0.341
UniProt O95163_C23 0.013
UBE4B C448 (UniProt O95155) 0.116
GAPDH C156 (UniProt P04406) -0.0924
PRPF6 C901 (UniProt O94906) 0.0662
PARN C169 (UniProt O95453) 0.901
ECD C557 (UniProt O95905) 0.573
SNAPIN C66 (UniProt O95295) 0.113
RPLP0 C226 (UniProt P05388) 0.239
PRPF6 C739 (UniProt O94906) 0.57
UniProt O96028_C1324 0.369
KIF4A C269 (UniProt O95239) 0.0303
EPRS C359 (UniProt P07814) 0.19
RPLP0 C119 (UniProt P05388) 0.471
MBD3 C172 (UniProt O95983) 0.114

Copied from the listing (6 entries):
log2 ratio of iodoacetamide-alkyne labeling, inactive:
PRPF6 C698 (UniProt O94906) 0.0824
EPRS C1487 (UniProt P07814) 0.0745
SOD1 C58 (UniProt P00441) 0.393
BAG3 C151 (UniProt O95817) 0.655
PRPF6 C429 (UniProt O94906) 0.551
SVIL C671 (UniProt O95425) 0.341
